Data taken from the supplement of paper PMC12819154, “High-throughput peptide-centric local stability assay extends protein–ligand identification to membrane proteins, tissues and bacteria” (Nature Structural & Molecular Biology, 2025).
The list shows a part of the results. Most entries show no effect beyond the scatter of the controls.

Chains of the proteins cited; added tags and fusions are not shown. Lines headed by an entry give the natural chain unless they say otherwise; changes in a name come on top.
UniProt Q3UXZ9: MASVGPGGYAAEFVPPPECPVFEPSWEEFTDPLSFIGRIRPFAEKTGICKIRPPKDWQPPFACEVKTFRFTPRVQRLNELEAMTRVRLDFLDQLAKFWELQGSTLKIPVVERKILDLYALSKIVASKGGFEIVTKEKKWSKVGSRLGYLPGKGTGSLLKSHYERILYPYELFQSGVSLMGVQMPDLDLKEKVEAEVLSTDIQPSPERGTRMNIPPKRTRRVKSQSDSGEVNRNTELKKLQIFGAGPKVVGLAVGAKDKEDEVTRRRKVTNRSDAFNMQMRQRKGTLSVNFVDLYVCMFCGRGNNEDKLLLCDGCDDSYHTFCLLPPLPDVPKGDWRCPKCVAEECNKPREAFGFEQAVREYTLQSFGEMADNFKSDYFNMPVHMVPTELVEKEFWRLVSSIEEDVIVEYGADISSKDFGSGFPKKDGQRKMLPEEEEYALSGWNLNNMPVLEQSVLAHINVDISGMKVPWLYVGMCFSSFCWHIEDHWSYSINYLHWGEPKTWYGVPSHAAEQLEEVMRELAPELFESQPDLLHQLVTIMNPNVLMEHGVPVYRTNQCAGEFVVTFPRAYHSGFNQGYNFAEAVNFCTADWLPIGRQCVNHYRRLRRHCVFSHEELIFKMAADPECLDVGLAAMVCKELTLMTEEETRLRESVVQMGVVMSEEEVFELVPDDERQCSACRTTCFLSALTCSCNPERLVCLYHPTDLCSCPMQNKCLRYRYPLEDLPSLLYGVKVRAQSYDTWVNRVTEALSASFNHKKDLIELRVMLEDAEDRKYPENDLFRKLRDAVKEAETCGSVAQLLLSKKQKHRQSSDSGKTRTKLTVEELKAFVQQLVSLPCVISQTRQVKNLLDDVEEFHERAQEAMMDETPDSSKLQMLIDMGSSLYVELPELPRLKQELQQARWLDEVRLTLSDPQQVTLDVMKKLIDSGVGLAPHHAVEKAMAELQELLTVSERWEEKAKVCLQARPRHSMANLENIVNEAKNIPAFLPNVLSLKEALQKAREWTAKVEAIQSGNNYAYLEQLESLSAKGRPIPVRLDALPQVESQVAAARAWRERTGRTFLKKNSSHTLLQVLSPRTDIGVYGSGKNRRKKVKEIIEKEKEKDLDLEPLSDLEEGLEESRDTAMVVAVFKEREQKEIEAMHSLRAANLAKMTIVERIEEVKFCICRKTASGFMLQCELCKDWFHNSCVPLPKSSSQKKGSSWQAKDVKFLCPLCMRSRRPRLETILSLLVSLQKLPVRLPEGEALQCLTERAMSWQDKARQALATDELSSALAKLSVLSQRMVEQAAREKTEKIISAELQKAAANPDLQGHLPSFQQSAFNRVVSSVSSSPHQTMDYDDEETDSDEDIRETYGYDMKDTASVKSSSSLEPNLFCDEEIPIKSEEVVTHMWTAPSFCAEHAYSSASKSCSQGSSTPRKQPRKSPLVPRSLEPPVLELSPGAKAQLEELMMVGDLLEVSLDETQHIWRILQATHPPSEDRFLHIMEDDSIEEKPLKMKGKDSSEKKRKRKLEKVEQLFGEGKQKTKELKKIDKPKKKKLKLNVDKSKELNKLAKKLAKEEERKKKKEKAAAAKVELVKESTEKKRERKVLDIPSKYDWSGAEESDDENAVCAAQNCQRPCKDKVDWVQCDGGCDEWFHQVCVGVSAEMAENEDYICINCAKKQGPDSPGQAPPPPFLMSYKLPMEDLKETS
UniProt Q4V9W2: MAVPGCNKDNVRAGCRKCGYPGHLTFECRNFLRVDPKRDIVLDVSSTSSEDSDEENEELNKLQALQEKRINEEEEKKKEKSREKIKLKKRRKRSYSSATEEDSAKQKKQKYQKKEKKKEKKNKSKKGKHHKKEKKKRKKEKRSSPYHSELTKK
UniProt Q5DU37: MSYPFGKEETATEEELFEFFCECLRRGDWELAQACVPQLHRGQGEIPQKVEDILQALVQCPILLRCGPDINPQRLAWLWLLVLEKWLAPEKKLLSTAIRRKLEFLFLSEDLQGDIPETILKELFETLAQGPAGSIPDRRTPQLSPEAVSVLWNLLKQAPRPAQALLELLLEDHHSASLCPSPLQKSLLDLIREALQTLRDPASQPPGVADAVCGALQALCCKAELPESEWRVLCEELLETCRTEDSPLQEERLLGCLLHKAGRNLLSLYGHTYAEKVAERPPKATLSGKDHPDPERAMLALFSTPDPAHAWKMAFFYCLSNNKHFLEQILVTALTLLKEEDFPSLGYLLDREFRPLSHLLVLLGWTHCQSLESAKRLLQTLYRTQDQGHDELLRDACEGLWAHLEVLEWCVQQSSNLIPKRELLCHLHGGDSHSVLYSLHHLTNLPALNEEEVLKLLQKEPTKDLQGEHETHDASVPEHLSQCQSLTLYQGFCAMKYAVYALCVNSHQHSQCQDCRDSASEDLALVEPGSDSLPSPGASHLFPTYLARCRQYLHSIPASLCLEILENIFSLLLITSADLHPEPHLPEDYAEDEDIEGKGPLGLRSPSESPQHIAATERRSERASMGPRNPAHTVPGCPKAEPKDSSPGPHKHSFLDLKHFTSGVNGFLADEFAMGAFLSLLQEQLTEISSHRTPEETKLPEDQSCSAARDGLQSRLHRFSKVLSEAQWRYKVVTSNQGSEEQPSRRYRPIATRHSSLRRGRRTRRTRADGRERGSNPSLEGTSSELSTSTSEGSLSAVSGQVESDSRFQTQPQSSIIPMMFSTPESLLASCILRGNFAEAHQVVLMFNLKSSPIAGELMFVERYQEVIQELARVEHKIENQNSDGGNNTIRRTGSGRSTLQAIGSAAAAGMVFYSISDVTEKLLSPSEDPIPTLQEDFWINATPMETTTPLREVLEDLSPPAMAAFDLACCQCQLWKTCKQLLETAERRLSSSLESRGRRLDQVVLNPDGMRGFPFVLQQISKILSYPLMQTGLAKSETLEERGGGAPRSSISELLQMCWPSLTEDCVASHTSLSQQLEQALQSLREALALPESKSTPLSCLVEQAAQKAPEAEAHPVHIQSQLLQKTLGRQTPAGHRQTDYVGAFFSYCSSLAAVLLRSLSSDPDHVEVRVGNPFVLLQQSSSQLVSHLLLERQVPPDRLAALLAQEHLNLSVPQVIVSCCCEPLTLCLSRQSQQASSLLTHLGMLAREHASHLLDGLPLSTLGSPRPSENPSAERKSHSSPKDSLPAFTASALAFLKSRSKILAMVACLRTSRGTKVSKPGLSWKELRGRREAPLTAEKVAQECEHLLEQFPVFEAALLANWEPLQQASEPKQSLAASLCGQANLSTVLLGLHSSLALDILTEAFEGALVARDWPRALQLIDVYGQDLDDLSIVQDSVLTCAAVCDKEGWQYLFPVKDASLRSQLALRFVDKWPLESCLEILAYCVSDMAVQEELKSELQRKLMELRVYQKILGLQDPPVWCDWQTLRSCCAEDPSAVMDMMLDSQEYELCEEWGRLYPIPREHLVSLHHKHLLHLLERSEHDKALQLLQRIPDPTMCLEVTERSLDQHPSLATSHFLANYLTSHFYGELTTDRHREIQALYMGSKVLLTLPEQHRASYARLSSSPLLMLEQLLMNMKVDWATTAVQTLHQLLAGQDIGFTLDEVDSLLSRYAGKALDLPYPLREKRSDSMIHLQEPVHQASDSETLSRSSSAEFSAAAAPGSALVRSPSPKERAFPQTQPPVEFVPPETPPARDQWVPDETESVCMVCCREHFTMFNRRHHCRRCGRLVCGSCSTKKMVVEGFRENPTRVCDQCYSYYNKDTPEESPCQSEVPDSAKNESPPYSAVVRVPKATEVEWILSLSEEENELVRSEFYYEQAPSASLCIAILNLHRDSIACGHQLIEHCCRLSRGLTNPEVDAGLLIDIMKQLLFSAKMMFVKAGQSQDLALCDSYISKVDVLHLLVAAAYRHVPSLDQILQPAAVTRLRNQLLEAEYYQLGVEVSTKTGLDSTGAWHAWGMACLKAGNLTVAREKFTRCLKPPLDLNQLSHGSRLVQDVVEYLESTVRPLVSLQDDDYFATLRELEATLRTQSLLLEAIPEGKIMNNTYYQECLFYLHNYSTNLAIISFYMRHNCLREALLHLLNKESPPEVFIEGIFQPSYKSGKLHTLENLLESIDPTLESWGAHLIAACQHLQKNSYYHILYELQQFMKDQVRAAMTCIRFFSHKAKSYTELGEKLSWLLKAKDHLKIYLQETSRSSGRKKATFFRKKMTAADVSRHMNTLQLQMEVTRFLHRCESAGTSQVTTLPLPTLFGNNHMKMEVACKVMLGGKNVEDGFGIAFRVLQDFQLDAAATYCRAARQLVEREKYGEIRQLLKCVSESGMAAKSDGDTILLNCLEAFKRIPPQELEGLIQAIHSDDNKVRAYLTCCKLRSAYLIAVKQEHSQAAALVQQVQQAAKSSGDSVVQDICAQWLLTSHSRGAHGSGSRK
UniProt Q3UW55: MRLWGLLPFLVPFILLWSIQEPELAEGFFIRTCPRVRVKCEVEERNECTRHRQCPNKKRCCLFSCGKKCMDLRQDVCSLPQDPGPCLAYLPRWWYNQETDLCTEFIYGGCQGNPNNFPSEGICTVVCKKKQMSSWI
UniProt Q3UP75: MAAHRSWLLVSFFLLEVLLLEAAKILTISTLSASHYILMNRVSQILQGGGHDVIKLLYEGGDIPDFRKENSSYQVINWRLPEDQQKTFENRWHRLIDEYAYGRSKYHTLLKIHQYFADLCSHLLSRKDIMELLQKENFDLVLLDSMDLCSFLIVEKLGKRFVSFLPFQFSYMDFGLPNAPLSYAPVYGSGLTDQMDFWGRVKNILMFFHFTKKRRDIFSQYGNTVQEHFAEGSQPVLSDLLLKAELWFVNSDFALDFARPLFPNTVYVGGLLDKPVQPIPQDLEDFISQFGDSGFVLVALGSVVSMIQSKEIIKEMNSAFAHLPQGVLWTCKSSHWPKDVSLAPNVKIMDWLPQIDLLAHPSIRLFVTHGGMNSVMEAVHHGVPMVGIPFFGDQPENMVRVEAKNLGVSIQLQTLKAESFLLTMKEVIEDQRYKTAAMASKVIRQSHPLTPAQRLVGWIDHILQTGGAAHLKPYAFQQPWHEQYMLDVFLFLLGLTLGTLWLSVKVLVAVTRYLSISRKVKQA
UniProt Q3UIL6: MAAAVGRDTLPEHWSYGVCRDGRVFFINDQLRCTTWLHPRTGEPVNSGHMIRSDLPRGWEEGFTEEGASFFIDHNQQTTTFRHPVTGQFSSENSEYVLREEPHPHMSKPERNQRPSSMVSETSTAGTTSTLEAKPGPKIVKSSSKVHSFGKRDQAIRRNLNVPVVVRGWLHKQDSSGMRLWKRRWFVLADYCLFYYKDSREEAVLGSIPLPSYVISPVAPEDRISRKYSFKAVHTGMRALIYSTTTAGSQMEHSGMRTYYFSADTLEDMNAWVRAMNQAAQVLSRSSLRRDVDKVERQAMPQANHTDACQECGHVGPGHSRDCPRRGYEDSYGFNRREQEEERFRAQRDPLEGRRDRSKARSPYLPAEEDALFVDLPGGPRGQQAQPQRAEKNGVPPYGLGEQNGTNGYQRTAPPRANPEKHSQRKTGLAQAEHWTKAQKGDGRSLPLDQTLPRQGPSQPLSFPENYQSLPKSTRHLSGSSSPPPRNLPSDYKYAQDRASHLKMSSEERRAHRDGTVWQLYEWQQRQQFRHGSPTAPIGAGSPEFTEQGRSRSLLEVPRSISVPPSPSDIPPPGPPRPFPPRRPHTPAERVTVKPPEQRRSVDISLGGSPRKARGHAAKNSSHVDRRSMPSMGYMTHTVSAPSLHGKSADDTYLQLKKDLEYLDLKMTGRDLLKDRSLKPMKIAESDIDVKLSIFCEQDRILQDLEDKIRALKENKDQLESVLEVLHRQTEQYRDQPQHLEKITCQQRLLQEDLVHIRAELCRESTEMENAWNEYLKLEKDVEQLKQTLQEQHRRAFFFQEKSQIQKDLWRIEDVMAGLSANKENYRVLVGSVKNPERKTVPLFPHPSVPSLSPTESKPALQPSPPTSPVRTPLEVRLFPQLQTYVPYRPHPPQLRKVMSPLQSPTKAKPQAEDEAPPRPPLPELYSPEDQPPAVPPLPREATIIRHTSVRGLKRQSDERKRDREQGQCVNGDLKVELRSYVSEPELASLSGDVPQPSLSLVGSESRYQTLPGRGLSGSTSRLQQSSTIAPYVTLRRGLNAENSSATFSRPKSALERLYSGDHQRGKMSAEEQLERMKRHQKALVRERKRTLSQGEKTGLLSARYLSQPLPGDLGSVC
UniProt Q4VC33: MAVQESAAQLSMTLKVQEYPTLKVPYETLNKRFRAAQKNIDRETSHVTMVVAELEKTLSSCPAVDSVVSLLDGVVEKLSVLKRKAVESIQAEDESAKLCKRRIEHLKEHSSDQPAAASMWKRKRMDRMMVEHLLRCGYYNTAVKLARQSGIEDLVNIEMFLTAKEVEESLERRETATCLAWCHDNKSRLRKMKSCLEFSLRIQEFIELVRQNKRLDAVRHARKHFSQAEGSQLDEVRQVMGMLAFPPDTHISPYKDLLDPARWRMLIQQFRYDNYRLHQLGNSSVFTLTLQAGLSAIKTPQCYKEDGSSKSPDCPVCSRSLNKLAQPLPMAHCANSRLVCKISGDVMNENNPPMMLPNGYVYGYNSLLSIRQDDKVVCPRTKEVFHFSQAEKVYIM

Compound: CN[C@@H]1C[C@H]2O[C@@](C)([C@@H]1OC)n1c3ccccc3c3c4c(c5c6ccccc6n2c5c31)C(=O)NC4 [staurosporine]
Experiment: log2 fold change of tryptic peptide abundance, ligand vs vehicle (limited proteolysis) (log2 ratio); higher = more trypsin-susceptible (destabilized)
Settings: ligand concentration: 20 uM; sample: mouse liver crude lysate; replicate design: treated separately

Target	log2 fold change
UniProt Q571B6 (peptide sequence: KVETPTLPHPGTSVNEQVLAAIR, peptide start residue: 715)	-0.259
UniProt Q3URQ0 (peptide sequence: LLLQHVPLR, peptide start residue: 865)	0.593
UniProt Q5DTM8 (peptide sequence: CDEILMEEIK, peptide start residue: 903)	0.468
UniProt Q3UHH2 (peptide sequence: KGEQPLLLTNAELK, peptide start residue: 649)	0.104
UniProt Q3UHB8 (peptide sequence: KLQQEQNLK, peptide start residue: 453)	0.242
UniProt Q3V0C1 (peptide sequence: ISHFESEIHAQNVK, peptide start residue: 105)	0.416
UniProt Q3UYC0 (peptide sequence: GGVGAPGSPSTPPTR, peptide start residue: 213)	0.02
UniProt Q3UXZ9 (peptide sequence: VTEALSASFNHKK, peptide start residue: 746)	-0.492
UniProt Q5DTW7 (peptide sequence: SLCSGVGNSQK, peptide start residue: 506)	-0.442
UniProt Q3UPH7 (peptide sequence: VQQMVSMGIGNKPFLDIK, peptide start residue: 1381)	-0.32
UniProt Q3UBZ5 (peptide sequence: MCYAIIQAESK, peptide start residue: 58)	0.148
UniProt Q3V209 (peptide sequence: GEMEPSLEHLLDIQGLPK, peptide start residue: 127)	0.217
UniProt Q3UAW9 (peptide sequence: AQAASQAAMR, peptide start residue: 406)	0.0423
UniProt Q3UMF0 (peptide sequence: SLNDLGLR, peptide start residue: 248)	-0.147
UniProt Q4U2R1 (peptide sequence: MLVESGTTDKPAPPDR, peptide start residue: 2000)	-0.495
UniProt Q4V9W2 (peptide sequence: KCGYPGHLTFECR, peptide start residue: 17)	-0.349
UniProt Q3UN04 (peptide sequence: DQQGPHTHQCLSLTLLNLLK, peptide start residue: 106)	0.768
UniProt Q3URV1 (peptide sequence: LILDQLDPGQPK, peptide start residue: 173)	-0.3
UniProt Q5DU37 (peptide sequence: VLSEAQWR, peptide start residue: 722)	-0.283
UniProt Q4VAA7 (peptide sequence: FTVISVPHLPEK, peptide start residue: 281)	0.252
UniProt Q3UW55 (peptide sequence: KKQMSSWI, peptide start residue: 129)	0.152
UniProt Q3U9N9 (peptide sequence: MLENQSSLLSGSSGIFKK, peptide start residue: 489)	-0.13
UniProt Q3UZP0 (peptide sequence: ANHHPYKDPSR, peptide start residue: 125)	-0.67
UniProt Q3UHI0 (peptide sequence: SFSGPSNLGK, peptide start residue: 142)	0.459
UniProt Q3UP75 (peptide sequence: DVSLAPNVK, peptide start residue: 339)	-0.136
UniProt Q4VAE3 (peptide sequence: ELHRFESIAIAQEK, peptide start residue: 84)	-0.053
UniProt Q3UIL6 (peptide sequence: AQRDPLEGR, peptide start residue: 346)	-0.53
UniProt Q5DTY9 (peptide sequence: YILDYLR, peptide start residue: 91)	0.115
UniProt Q3UJP5 (peptide sequence: LDPLRLDLGERPK, peptide start residue: 19)	0.149
UniProt Q4VC33 (peptide sequence: EVFHFSQAEK, peptide start residue: 383)	0.349

Nothing new here: entries from further up.
Target	log2 fold change
UniProt Q3U9N9 (peptide sequence: MLENQSSLLSGSSGIFKK, peptide start residue: 489)	-0.13
UniProt Q3UZP0 (peptide sequence: ANHHPYKDPSR, peptide start residue: 125)	-0.67
